Results on two substances are retold here after paper PMC7415798.

Chains of the proteins cited; added tags and fusions are not shown.
UniProt Q12778: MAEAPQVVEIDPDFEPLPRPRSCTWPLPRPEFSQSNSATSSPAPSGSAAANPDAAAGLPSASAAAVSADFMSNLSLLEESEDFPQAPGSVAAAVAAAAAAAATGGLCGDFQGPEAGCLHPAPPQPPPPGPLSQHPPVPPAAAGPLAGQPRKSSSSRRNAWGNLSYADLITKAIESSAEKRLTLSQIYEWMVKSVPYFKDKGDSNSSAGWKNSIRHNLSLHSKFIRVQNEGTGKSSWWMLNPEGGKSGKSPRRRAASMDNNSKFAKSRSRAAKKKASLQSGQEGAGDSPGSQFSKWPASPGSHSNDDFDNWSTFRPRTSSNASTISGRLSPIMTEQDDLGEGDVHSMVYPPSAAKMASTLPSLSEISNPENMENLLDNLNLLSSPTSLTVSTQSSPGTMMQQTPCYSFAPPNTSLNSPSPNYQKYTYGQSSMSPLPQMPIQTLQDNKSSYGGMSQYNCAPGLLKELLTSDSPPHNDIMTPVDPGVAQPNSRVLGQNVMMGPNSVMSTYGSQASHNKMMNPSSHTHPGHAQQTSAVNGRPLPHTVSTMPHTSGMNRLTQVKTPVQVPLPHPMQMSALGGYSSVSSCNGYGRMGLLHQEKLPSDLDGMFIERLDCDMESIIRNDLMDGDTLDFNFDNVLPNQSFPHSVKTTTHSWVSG

Experiment [1] concerns the target T1, methyltransferase-like 14 (METTL14), endogenous (human (endogenous in HUVECs)) (UniProt Q9HCE5).
T1 sequence: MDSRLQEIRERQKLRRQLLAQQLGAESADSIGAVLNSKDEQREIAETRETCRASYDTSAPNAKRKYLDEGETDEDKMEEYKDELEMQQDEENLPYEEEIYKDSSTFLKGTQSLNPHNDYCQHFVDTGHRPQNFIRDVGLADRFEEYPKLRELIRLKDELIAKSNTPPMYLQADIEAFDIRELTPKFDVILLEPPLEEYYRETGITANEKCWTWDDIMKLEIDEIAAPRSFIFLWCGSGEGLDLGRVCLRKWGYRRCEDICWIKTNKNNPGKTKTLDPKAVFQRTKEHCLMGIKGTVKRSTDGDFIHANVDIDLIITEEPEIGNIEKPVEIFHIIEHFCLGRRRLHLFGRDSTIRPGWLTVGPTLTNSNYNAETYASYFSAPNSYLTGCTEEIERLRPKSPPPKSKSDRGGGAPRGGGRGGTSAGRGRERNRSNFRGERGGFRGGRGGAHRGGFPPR
The experiment can be described thus: co-IP; endogenous proteins in HUVEC lysate; precipitated with anti-METTL14 or anti-FOXO1 antibodies; lysis in RIPA buffer, immunoblot. Background: Immunoblotting shows a protein as a band on a membrane.

Experiment [2] has as its target T2, flag-tagged METTL14 (human) (UniProt Q9HCE5).
T2 sequence: T1 sequence
Briefly: co-IP; flag-tagged METTL14 and myc-tagged FOXO1 ectopically expressed in 293T cells; co-IP with anti-flag or anti-myc antibodies; lysis in RIPA buffer, immunoblot.

These are yes or no findings as the source states them, for the method shown. In cells and extracts the contact can be indirect. Some binding calls cover weakened binding; strength is not graded here. For some assays here: Tags and fused reporters may be left off the sequences shown.

“forkhead box O1 (FOXO1), endogenous (from UniProt Q12778 1-655)”: in experiment [1], the binding result was “binds”.
As to “myc-tagged FOXO1 (from UniProt Q12778 1-655)”, the binding entry in experiment [2] is reported as “binds”.
